Literature values, collected in patent US8470587B2, “129Xe biosensors and their use” (The Trustees of the University of Pennsylvania, priority 2006, dated 2013).
The name of at least one read-out is uncertain.

Molecular target: T1, MMP-7 (Homo sapiens, UniProt P09237)
T1 construct: BIOMOL International LP, MMP-7 (recombinant, catalytic domain); purchased BIOMOL International LP
T1 sequence (P09237 95-267): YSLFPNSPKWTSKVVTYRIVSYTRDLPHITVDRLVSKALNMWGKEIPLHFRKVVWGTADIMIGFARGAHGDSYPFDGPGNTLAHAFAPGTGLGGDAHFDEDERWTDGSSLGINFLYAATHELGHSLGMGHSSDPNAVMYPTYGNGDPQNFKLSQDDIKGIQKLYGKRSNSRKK
Settings: reported previously at 303 K; cited from earlier work

Question: For “dinitrophenyl-Arg-Pro-Leu-Ala-Leu-Trp-Arg-Ser”, which kcat/KM is on record?
Answer: The kcat/KM was 190000 M⁻¹ s⁻¹.
